Data from patent US20120252054A1, “SYSTEM FOR TRANSFORMATION OF THE CHLOROPLAST GENOME OF SCENEDESMUS SP. AND DUNALIELLA SP” (priority 2009, published 2012).
Some of these results come from one statement about several compounds together.

System: S. dimorphus transformants with the psbA S264A mutation
Assay: Growth in HSM with various concentrations of DCMU or atrazine, psbA S264A transformants
Assay type: cell-based, Scenedesmus dimorphus
Settings: constant light 50-100 uE with CO2 enrichment, 4 days

## CCNc1nc(Cl)nc(NC(C)C)n1 [Atrazine]
  concentration up to which cells grow: up to 10 uM

## CN(C)C(=O)Nc1ccc(Cl)c(Cl)c1 [DCMU, 3-(3,4-Dichlorophenyl)-1,1-dimethylurea]
  concentration up to which cells grow: up to 10 uM
